Residue numbers refer to the chain shown, from its start. Numbers in names are those of the source. These are yes or no findings as the source states them, for the method shown.
What was measured:
[1] = molecular target: Thermoproteus tenax Csa5 wild type (TTX_1250) (Thermoproteus tenax Kra1) (UniProt G4RJZ0); assay: SDS-PAGE of SDS-stable oligomers; purified protein stored at 4°C for 1, 2, 4, 8 and 16 weeks; identity by mass spectrometry; nine-month old solution also after 6 M GdmCl (RT or 95°C) or 120°C in SDS-buffer; both purified
[2] = molecular target: Thermoproteus tenax Csa5 wild type (TTX_1250) (Thermoproteus tenax Kra1) (UniProt G4RJZ0); assay: SDS-PAGE of SDS-stable oligomers; freshly purified protein incubated for 1 h at 0°C, 37°C, 70°C, 90°C; both purified
[3] = molecular target: Thermoproteus tenax Csa5 wild type (TTX_1250) (Thermoproteus tenax Kra1) (UniProt G4RJZ0); assay: SEC; three-month old protein solution, 1–3.25 mg on Superdex 200 10/300GL in purification buffer (100 mM HEPES/KOH pH 7, 10% glycerol, 10 mM β-Me, 300 mM NaCl); size from calibration proteins; both purified
[4] = molecular target: Thermoproteus tenax Csa5 wild type (TTX_1250) (Thermoproteus tenax Kra1) (UniProt G4RJZ0); assay: SEC; freshly purified protein, 1–3.25 mg on Superdex 200 10/300GL in purification buffer (100 mM HEPES/KOH pH 7, 10% glycerol, 10 mM β-Me, 300 mM NaCl); size from calibration proteins; both purified
[5] = molecular target: Thermoproteus tenax Csa5 D30A/D33A (Thermoproteus tenax Kra1) (UniProt G4RJZ0); assay: SDS-PAGE of SDS-stable oligomers; freshly purified protein incubated for 1 h at 0°C, 37°C, 70°C, 90°C; both purified
[6] = molecular target: Thermoproteus tenax Csa5 D33A (Thermoproteus tenax Kra1) (UniProt G4RJZ0); assay: SEC; three-month old protein solution, 1–3.25 mg on Superdex 200 10/300GL in purification buffer (100 mM HEPES/KOH pH 7, 10% glycerol, 10 mM β-Me, 300 mM NaCl); size from calibration proteins; both purified

B1: Thermoproteus tenax Csa5 wild type (TTX_1250) (natural protein, Thermoproteus tenax Kra1, UniProt G4RJZ0 1-130, looked up)
chain: MESVQLKKEELVERAARSVRPAVHLEMAYDVLDELSRSPEKYPEQLAKLSRIVVKVLNDVEDELEHNPQNEELQKARNRLAAWGGYVAELAKRLEEADDRERIRMVRLFCAMALAPDKLTVELKKLLKGR
notes: Csa5 (Csa5b), small subunit of the type I-A Cascade, Thermoproteus tenax Kra1, locus TTX_1250; theoretical mass of the monomer 15.04 kDa; no tag is named and the purification uses none; also called Csa5 WT; Csa5b; source: E. coli Rosetta(DE3)pLysS, purified (heat precipitation 90°C, Blue-Sepharose, MonoQ)
- binding [1]: no binding
- binding [2]: no binding
- binding [3]: no binding
- binding [4]: no binding (tested: 1–3.25 mg protein)

B2: Thermoproteus tenax Csa5 D30A/D33A (natural protein, Thermoproteus tenax Kra1, UniProt G4RJZ0 1-130, looked up)
chain: B1 chain with D30A, D33A
notes: Made by site-directed mutagenesis of the pET24a csa5 construct; source: E. coli Rosetta(DE3)pLysS, purified (heat precipitation 90°C, Blue-Sepharose, MonoQ)
- binding [5]: no binding

B3: Thermoproteus tenax Csa5 D33A (natural protein, Thermoproteus tenax Kra1, UniProt G4RJZ0 1-130, looked up)
chain: B1 chain with D33A
notes: as for B2
- binding [6]: no binding

— publication PMC4141822
